56 compounds from PubChem BioAssay AID1487 (National Center for Advancing Translational Sciences (NCATS), 2009) can be followed below.

The list shows a part of the results. Further columns of the screen follow, without active or inactive calls. Compounds called inactive in the main read-out are mostly missing here. The note in brackets gives the kind of curve behind each potency; many fits are weak.

The assay in a line: qHTS Assay for Modulators of Lamin A Splicing. The following applies: HeLa LMNA splicing GFP/RFP minigene ratio, 48 h. The procedure, abridged: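 S3 HeLa cells stably expressing lamin A-EGFP splicing minigene plus DsRed2, 600 cells/well, 48 h compound exposure at 37C. Laser-scanning cytometry; analysed as GFP (500-530 nm)/RFP (575-640 nm) total intensity ratio; 0.5% DMSO vehicle.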
(In general: In qHTS, concentration-response curves come from the screen itself.)

The mark [1] stands for this setting: measured here: GFP splicing reporter channel.
The mark [2] stands for this setting: measured here: RFP viability control channel.

The term AC50 denotes the concentration giving half of the maximal activity seen. For `COc1ccc2cc3cc(C(=O)Nc4ccc5c(c4)OCO5)oc3nc2c1`, the half-maximal activity concentration (AC50) was 31.6 µM [falling, single point] under setting [1] and 35.5 µM [falling, single point] under setting [2]. As to `Cc1cccc2cc(C#N)c(SCC(=O)N3CC(=O)Nc4ccccc43)nc12`, the AC50 was 0.891 µM [falling, full curve] under setting [1] and 1.12 µM [falling, full curve] under setting [2]. On to `Cc1ccc(Nc2ccc(C(N)=O)cc2[N+](=O)[O-])cc1`, for which the concentration at half-maximal activity (AC50) under setting [2] was 4.47 µM [rising, partial curve, poor fit]. For the compound `Cc1nc2c(C(=O)NCc3ccccc3)c[nH]n2c(=O)c1Cc1ccccc1Cl`, the AC50 was 7.94 µM [falling, partial curve, poor fit] under setting [1] and 12.6 µM [falling, partial curve, poor fit] under setting [2]. As for `COc1cccc(C(=O)Nc2ccc(N3CCCC3)cc2)c1`, the half-maximal activity concentration (AC50) under setting [2] is 35.5 µM [rising, single point]. In the case of `Cc1ccc(NS(=O)(=O)c2cc(C(=O)N3CCc4ccccc4C3)ccc2Cl)cc1`, the concentration at half-maximal activity (AC50) is, setting by setting: under setting [1], 17.8 µM [falling, single point]; under setting [2], 35.5 µM [falling, single point]. For the compound `O=C(N/N=C/c1cccc([N+](=O)[O-])c1O)c1cccs1`, the AC50 under setting [2] was 28.2 µM [rising, single point].

Turning to `Oc1ccc2c(c1)oc1cc(O)ccc12`, under setting [2], the AC50 was 12.6 µM [rising, single point]. On to `Cc1ccc(-c2cc(N)n(-c3ccc(F)cc3)n2)cc1`, for which, under setting [2], the half-maximal activity concentration (AC50) is 0.00501 µM [falling, full curve, poor fit]. Consider `CCOC(=O)c1c(S(=O)(=O)N2CCCC(C(=O)Nc3cccc(Cl)c3)C2)c(C)n(C)c1C` (stereo not drawn), for which, under setting [2], the AC50 is 28.2 µM [falling, partial curve]. On to `O=c1c(-c2cc3ccccc3o2)[n+]([O-])c2ccccc2n1OCc1ccccn1`, for which the AC50 under setting [2] was 25.1 µM [falling, single point]. As for `CCOC(=O)c1c(NC(=O)C(Sc2ccccc2)c2ccccc2)sc(C(=O)N(C)C)c1C` (stereo not drawn), the AC50 under setting [2] is 25.1 µM [rising, single point]. For the compound `CCC(=C(c1ccc(OC)cc1)c1ccc(OC)cc1)c1cn(CC(O)CN(CCO)CCO)c2ccccc12` (stereo not drawn), the half-maximal activity concentration (AC50) was 15.8 µM [falling, single point] under setting [1] and 14.1 µM [falling, single point] under setting [2]. With `Cc1cccc(C(=O)Nc2nc(C)c(C(=O)Nc3ccc4c(c3)CCC4)s2)c1`, the AC50 under setting [1] is 22.4 µM [falling, partial curve] and the AC50 under setting [2] is 35.5 µM [falling, single point]. As for `CC(C)n1nnc2c(=O)oc3ccccc3c21`, the AC50 under setting [2] was 4.47 µM [rising, partial curve, poor fit]. On the same count and under the same terms, the figure for `Cc1ccc(S(=O)(=O)Nc2ccc(Cl)cc2C(=O)c2ccc(F)cc2)cc1` is 35.5 µM [rising, single point]. As for `CCOc1ccc(CNS(=O)(=O)c2cc3c(cc2C)NC(=O)CO3)cc1OC`, the AC50 reads like this: under setting [1], 0.447 µM [rising, partial curve, poor fit]; under setting [2], 0.355 µM [rising, full curve, poor fit]. On to `COc1ccc(-n2c(=O)c3ccccc3c3ccccc3c2=O)cc1`, for which, under setting [2], the AC50 is 0.501 µM [rising, full curve, poor fit].

With `Cc1ccc(OCC(=O)Nc2nnc(SCc3cc(=O)c4ccccc4[nH]3)s2)cc1`, the half-maximal activity concentration (AC50) under setting [1] is 0.251 µM [rising, partial curve]. With `CCCn1c(/C=N/Nc2nc3ccccc3[nH]2)nc2ccccc21`, the AC50 under setting [2] was 11.2 µM [rising, partial curve, poor fit]. For the compound `O=C(O)c1[nH]c2ccccc2c1C=NCc1ccccc1Cl`, the concentration at half-maximal activity (AC50) under setting [1] is 35.5 µM [falling, single point].

Turning to `Cc1ccc(-c2nc3sc(CCNC(=O)c4ccc(Br)o4)c(C)n3n2)cc1`, the half-maximal activity concentration (AC50) is 20 µM [falling, partial curve, poor fit] under setting [1] and 1 µM [falling, partial curve, poor fit] under setting [2].

Take `CC(=O)N(CN1C(=O)c2ccccc2C1=O)c1ccc2c(c1)oc1ccccc12`: the half-maximal activity concentration (AC50) under setting [1] is 1.26 µM [falling, full curve, poor fit]. In the case of `CC(C)=CCC1C(=O)N(c2ccccc2)N(c2ccccc2)C1=O`, the AC50 under setting [2] is 31.6 µM [falling, single point]. With `CCOc1ccc(C(=O)N2CCC(c3nc4ccccc4o3)CC2)cc1`, under setting [2], the half-maximal activity concentration (AC50) was 39.8 µM [falling, partial curve, poor fit]. As to `COC(=O)c1c(NC(=O)c2ccc(C)cc2)csc1C`, the AC50 under setting [2] is 28.2 µM [falling, single point].

For `O=C(NCCc1csc(-c2ccccc2)n1)c1c(F)cccc1F`, under setting [2], the half-maximal activity concentration (AC50) was 0.00316 µM [falling, full curve, poor fit]. As to `O=c1cc(-c2ccccc2Cl)oc2c([N+](=O)[O-])c(O)cc(O)c12`, the AC50 runs as follows: under setting [1], 2.24 µM [rising, partial curve]; under setting [2], 3.98 µM [rising, partial curve]. `O=C(C(=O)N1CCOCC1)c1c[nH]c2ccccc12`: the AC50 under setting [2] is 0.00355 µM [falling, full curve, poor fit]. Take `CCCCNC(=S)N(C)/N=C/c1ccc(OCC(=O)Nc2c(C)cc(C)cc2C)c(OC)c1`: the concentration at half-maximal activity (AC50) is 7.08 µM [rising, full curve] under setting [1] and 11.2 µM [rising, partial curve] under setting [2]. In the case of `COC(=O)c1c(-c2cccs2)csc1NC(=O)COc1ccc(C(C)(C)C)cc1`, the half-maximal activity concentration (AC50) is, setting by setting: under setting [1], 35.5 µM [rising, single point]; under setting [2], 20 µM [rising, single point].

Take `COc1ccc(NC(=O)c2ccc(-c3ccccc3)cc2)cc1NS(=O)(=O)c1ccc(F)cc1`: the AC50 under setting [2] is 3.16 µM [rising, full curve].

On to `CCN1CCCC1CNCc1ccccc1OCc1ccc(F)cc1` (stereo not drawn), for which the concentration at half-maximal activity (AC50) under setting [2] was 35.5 µM [rising, single point]. With `CCOC(=O)C1(CCc2ccccc2)CCN(C(=O)Cc2nonc2C)CC1`, under setting [2], the concentration at half-maximal activity (AC50) was 0.00447 µM [falling, full curve].

`Cc1cccnc1NCc1ccc(O)c2ncccc12`: under setting [2], the AC50 is 35.5 µM [rising, single point].

Take `O=C(Nc1ccc([N+](=O)[O-])cc1)c1ccc(Cn2cc([N+](=O)[O-])cn2)cc1`: the half-maximal activity concentration (AC50) was 1.12 µM [rising, partial curve, poor fit] under setting [1] and 5.01 µM [rising, partial curve, poor fit] under setting [2].

On to `Cc1cccc(OCC(=O)N(Cc2cccs2)c2ccc(Cl)cc2)c1C`, for which the AC50 under setting [2] was 11.2 µM [rising, partial curve, poor fit]. On the same count and under the same terms, in the case of `O=C(N/N=C/c1c[nH]c2ccccc12)C1CC1c1ccccc1` (stereo not drawn) it was 20 µM [rising, single point]; in that of `Brc1ccc2ncnc(NCc3ccco3)c2c1`, 3.16 µM [rising, full curve]. On to `CN1CCN(c2ncc3nc(-c4cccc(C#N)c4)c(=O)n(Cc4ccc(F)cc4)c3n2)CC1`, for which the AC50 under setting [1] was 20 µM [falling, partial curve] and the AC50 under setting [2] is 12.6 µM [falling, partial curve]. As for `CC(C)C(=O)Nc1cc(S(=O)(=O)Nc2ccc(Cl)cc2)ccc1Cl`, under setting [2], the AC50 is 4.47 µM [rising, partial curve].

Turning to `Cc1cc(=S)cc(C)n1CCCn1ccnc1`, the AC50 under setting [1] is 39.8 µM [falling, partial curve, poor fit]. For the compound `O=C(NNC(=O)c1ccc(Br)o1)c1ccc(NC(=O)c2ccccc2)cc1`, the AC50 under setting [2] was 6.31 µM [rising, single point]. With `O=c1[nH]c(Cn2nnc(-c3ccccc3)n2)nc2scc(-c3ccccc3)c12`, the AC50 under setting [1] was 11.2 µM [rising, partial curve, poor fit] and the AC50 under setting [2] is 12.6 µM [rising, single point].

As to `O=C1c2oc3ccccc3c(=O)c2C(c2ccccc2)N1Cc1ccc2c(c1)OCO2` (stereo not drawn), the AC50 under setting [1] is 0.0355 µM [rising, full curve, poor fit]. As for `O=C(CS(=O)CC(=O)N(c1cccc(F)c1)C(C(=O)NC1CCCCC1)c1ccco1)Nc1ccc(F)cc1` (stereo not drawn), the AC50 under setting [1] was 0.0112 µM [rising, full curve, poor fit]. Consider `C=CCN1C(=O)/C(=C/c2ccc(OCC(=O)O)cc2)S/C1=N/c1nccs1`, for which, under setting [1], the AC50 was 11.2 µM [rising, partial curve, poor fit]. For the compound `O=C(C[n+]1cccc(CNC(=O)c2ccc(OC(F)F)cc2)c1)Nc1ccc(SC(F)F)cc1`, the half-maximal activity concentration (AC50) under setting [1] was 25.1 µM [rising, single point] and the AC50 under setting [2] was 28.2 µM [rising, single point]. Turning to `CC1CC/C(=C\c2ccc3c(c2)OCO3)C(=O)/C1=C/c1ccc2c(c1)OCO2` (stereo not drawn), the AC50 is 35.5 µM [falling, single point] under setting [1] and 35.5 µM [falling, single point] under setting [2]. Take `Cc1ccc(CSc2nnc(-c3ccc(NS(=O)(=O)c4ccccc4)cc3)o2)cc1`: the AC50 under setting [2] is 35.5 µM [rising, single point].

Turning to `CCN1C(=O)c2ccccc2Sc2ccc(C(=O)NCCCN(CC(C)C)CC(C)C)cc21`, the AC50 under setting [1] was 11.2 µM [falling, partial curve, poor fit].

Consider `O=C1CCCN1CCC1CCN(C2CC(=O)N(Cc3ccc(N4CCCC4=O)cc3)C2=O)CC1` (stereo not drawn), for which the concentration at half-maximal activity (AC50) under setting [1] is 11.2 µM [rising, single point].

Consider `COc1cc(C2CC(=O)Oc3c2c(=O)n(C)c2ccccc32)ccc1O` (stereo not drawn), for which, under setting [1], the AC50 is 15.8 µM [falling, single point].

As to `CCC1(C)OCC(Cn2c3ccccc3c3ccccc32)O1` (stereo not drawn), under setting [2], the concentration at half-maximal activity (AC50) was 35.5 µM [rising, single point].

Take `Cc1ccc(NC(=O)c2ccc(OC(F)F)cc2)cc1S(=O)(=O)N(C)C`: the AC50 by setting is: under setting [1], 20 µM [rising, single point]; under setting [2], 22.4 µM [rising, single point]. For the compound `O=[N+]([O-])c1ccc(Nc2nc(N/N=C\c3ccc4c(c3)OCO4)nc(N3CCCCC3)n2)cc1`, the concentration at half-maximal activity (AC50) under setting [2] is 8.91 µM [rising, partial curve, poor fit].
